According to patent US8076285B2 (Aicuris GmbH & Co. KG, priority 2006, dated 2011):

Assay: general procedure: Fmoc solid-phase peptide synthesis; 2-chlorotrityl chloride resin (Iris Biotech), 0.85 mmol/g; TBTU/DIEA
[1] = coupling step, trifluoroacetate
[2] = late stage modification step, trifluoroacetate
[3] = cyclisation step, trifluoroacetate

Q: Which step yield [1] does the source give for “Benzyl [(3R)-N^2-(tert-butoxycarbonyl)-3-hydroxy-L-leucyl]-L-leucyl-D-arginyl-L-isoleucyl-L-allothreonyl-glycyl-[3-{[(9H-fluoren-9-ylmethoxy)carbonyl]amino}-L-alanyl]-L-serinate trifluoroacetate” here?
A: Its step yield is 56% of theory.

Q: With “[3-Trimethylsilyl-D-alanyl]-[3-(3-pyridyl)-L-alanyl]-[(3R)-3-amino-L-phenylalanyl]-[(3R)-3-hydroxy-L-leucyl]-L-norvalyl-D-arginyl-L-isoleucyl-L-allothreonyl-glycyl-L-alanyl-L-serine C^1.11-N^3.3-lactam” as the substance, how does the step yield (late stage modification step, from compound 457A, trifluoroacetate) read?
A: The step yield was 68% of theory.

Q: Which step yield [1] does the source give for “Benzyl [(3R)-N^2-(tert-butoxycarbonyl)-3-hydroxy-L-leucyl]-L-leucyl-D-arginyl-L-isoleucyl-L-allothreoninate trifluoroacetate” here?
A: Its step yield is 74% of theory.

Q: With “[(3R)-N^2-(Benzyloxycarbonyl)-3-amino-L-phenylalanyl]-[(3R)-3-hydroxy-L-leucyl]-L-isoleucyl-D-arginyl-L-isoleucyl-L-allothreonyl-glycyl-L-seryl-L-serine bistrifluoroacetate” as the substance, how does the step yield [2] read?
A: The step yield was 96% of theory.

Q: Which cyclisation yield (cyclisation step, from 362A, trifluoroacetate) does the source give for “[(3R)-N^2-(Benzyloxycarbonyl)-3-amino-L-phenylalanyl]-[(3R)-3-hydroxy-L-leucyl]-(3-trimethylsilyl-L-alanyl)-D-arginyl-L-isoleucyl-L-allothreonyl-glycyl-L-seryl-L-serine C^1.9-N^3.1-lactam trifluoroacetate” here?
A: The cyclisation yield was 98% of theory.

Q: With “[(3R)-N^2-(Benzyloxycarbonyl)-3-amino-L-phenylalanyl]-L-threonyl-L-leucyl-D-arginyl-L-isoleucyl-L-allothreonyl-glycyl-L-seryl-L-serine bistrifluoroacetate” as the substance, how does the step yield [2] read?
A: The step yield was 99% of theory.

Q: With “{(3R)-N^2-[(Benzyloxy)carbonyl]-3-[(tert-butoxycarbonyl)amino]-L-phenylalanyl}-[(3R)-3-hydroxy-L-leucyl]-L-leucyl-D-arginyl-L-isoleucyl-L-allothreonyl-glycyl-[(3S)-3-hydroxy-L-asparaginyl]-L-serine trifluoroacetate” as the substance, how does the step yield [1] read?
A: The step yield was 61.4% of theory.

Q: With “Benzyl [(3R)-N^2-(tert-butoxycarbonyl)-3-hydroxy-L-leucyl]-L-leucyl-D-arginyl-L-isoleucyl-L-allothreonyl-glycyl-[3-(3-pyridyl)-L-alanyl]-L-serinate trifluoroacetate” as the substance, how does the step yield [1] read?
A: Its step yield is 33% of theory.

Q: Which step yield [2] does the source give for “[3-tert-Butyl-D-alanyl]-[3-tert-butyl-L-alanyl]-[(3R)-3-amino-L-phenylalanyl]-[(3R)-3-hydroxy-L-leucyl]-L-leucyl-D-arginyl-L-isoleucyl-L-seryl-glycyl-[(3S)-3-hydroxy-L-asparaginyl]-L-serine C^1.11-N^3.3-lactam bistrifluoroacetate” here?
A: The step yield was 35% of theory.

Q: For “[N^2-(tert.-Butoxycarbonyl)-3-tert-butyl-D-alanyl]-[3-tert-butyl-L-alanyl]-[(3R)-3-amino-L-phenylalanyl]-[(3R)-3-hydroxy-L-leucyl]-L-leucyl-D-arginyl-L-isoleucyl-L-allothreonyl-glycyl-[(3S)-3-hydroxy-L-asparaginyl]-L-serine C^1.11-N^3.3-lactam hydrochloride”, which step yield (coupling step, hydrochloride) is on record?
A: The step yield was 89% of theory.

Q: For “{(3R)-3-Amino-N-[(benzyloxy)carbonyl]-4-(dimethylaminophenyl)-L-alanyl}-[(3R)-3-hydroxy-L-leucyl]-L-leucyl-D-arginyl-L-isoleucyl-L-allothreonyl-glycyl-[(3S)-3-hydroxy-L-asparaginyl]-L-serine bistrifluoroacetate tristrifluoroacetate”, which “crude purity (method not given)” value [2] is on record?
A: Its value is “about 70% pure”.

Q: What about the step yield [2] of the same substance?
A: The step yield was 80% of theory.

Q: Which step yield [2] does the source give for “N^2-(Benzyloxycarbonyl)-N^3-{N^2.1-tert-butoxycarbonyl[(3R)-3-hydroxy-L-leucyl]-L-leucyl-D-arginyl-L-isoleucyl-L-allothreonyl-glycyl-[(3S)-3-hydroxy-L-asparaginyl]-L-seryl}-(3R)-3-amino-L-alanine trifluoroacetate” here?
A: Its step yield is 88.9% of theory.

Q: Which “purity (crude or final not stated)” value [2] does the source give for “[(3R)-3-Hydroxy-L-leucyl]-L-leucyl-D-arginyl-L-leucyl-L-allothreonyl-glycyl-L-seryl-L-serine bistrifluoroacetate” here?
A: Its value is 40% pure.

Q: For “[(3R)-3-Hydroxy-L-leucyl]-L-isoleucyl-D-arginyl-L isoleucyl-L-allothreonyl-glycyl-L-seryl-L-serine bistrifluoroacetate”, which “final purity (method not given)” value [2] is on record?
A: Its value is 45% pure.

Q: For “[3-Trimethylsilyl-D-alanyl]-[3-tert-butyl-L-alanyl]-[(3R)-3-amino-4-(dimethylamino-phenyl)-L-alanyl]-[(3R)-3-hydroxy-L-leucyl]-L-leucyl-D-arginyl-L-isoleucyl-L-allothreonyl-glycyl-[(3S)-3-hydroxy-L-asparaginyl]-L-serine C^1.11-N^3.3-lactam tristrifluoroacetate”, which step yield [2] is on record?
A: Its step yield is 56% of theory.

Q: With “[N^2-(Benzyloxycarbonyl)-3-tert-butyl-D-alanyl]-[3-tert-butyl-L-alanyl]-[(3R)-3-amino-L-phenylalanyl]-[(3R)-3-hydroxy-L-leucyl]-L-leucyl-D-arginyl-L-isoleucyl-L-allothreonyl-glycyl-L-seryl-L-serine C^1.11-N^3.3-lactam hydrochloride” as the substance, how does the step yield [1] read?
A: The step yield was 70% of theory.

Q: With “[(3R)-N^2-(Benzyloxycarbonyl)-3-amino-L-phenylalanyl]-[(3R)-3-hydroxy-L-leucyl]-L-leucyl-D-arginyl-L-isoleucyl-L-allothreonyl-glycyl-[3-(3-pyridyl)-L-alanyl]-L-serine C^1.9-N^3.1-lactam trifluoroacetate” as the substance, how does the cyclisation yield [3] read?
A: Its cyclisation yield is 51% of theory.

Q: Which results are given for “{(3R)-N^2-[(9H-Fluoren-9-ylmethoxy)carbonyl]-3-amino-L-phenylalanyl}-[(3R)-3-hydroxy-L-leucyl]-L-leucyl-(N^6-benzyloxycarbonyl-D-lysyl)-L-isoleucyl-L-allothreonyl-glycyl-L-seryl-L-serine C^1.9-N^3.1-lactam trifluoroacetate”?
A: cyclisation yield (cyclisation step, from 379A, trifluoroacetate): 78% of theory; final purity (method not given) [3]: 64% pure

Q: With “[(3R)-N^2-(Benzyloxycarbonyl)-3-{(tert-butoxycarbonyl)amino}-L-phenylalanyl]-[(3R)-3-hydroxy-L-leucyl]-L-leucyl-D-arginyl-L-isoleucyl-L-seryl-glycyl-L-seryl-L-serine trifluoroacetate” as the substance, how does the step yield [1] read?
A: The step yield was 30% of theory.

Q: Which step yield [1] does the source give for “[(3R)-N^2-(Benzyloxycarbonyl)-3-{(tert-butoxycarbonyl)amino}-L-phenylalanyl]-[(3R)-3-hydroxy-L-leucyl]-L-valyl-D-arginyl-L-isoleucyl-L-allothreonyl-glycyl-L-seryl-L-serine trifluoroacetate” here?
A: Its step yield is 32% of theory.

Q: Which step yield (late stage modification step, of theory from 397A, trifluoroacetate) does the source give for “[(3R)-3-Amino-L-phenylalanyl]-[(3R)-3-hydroxy-L-leucyl]-L-leucyl-D-arginyl-L-isoleucyl-L-allothreonyl-D-seryl-L-seryl-L-serine C^1.9-N^3.1-lactam bistrifluoroacetate” here?
A: Its step yield is 93% of theory.

Q: For “Pentafluorophenyl [(3R)-N^2-(tert-butoxycarbonyl)-3-hydroxy-L-leucyl]-L-leucyl-D-arginyl-L-isoleucyl-L-allothreoninate trifluoroacetate”, which step yield [2] is on record?
A: Its step yield is 45% of theory.

Q: Which step yield [1] does the source give for “N^2-(Benzyloxycarbonyl)-N^3-{N^2.1-tert-butoxycarbonyl[(3R)-3-hydroxy-L-leucyl]-L-leucyl-D-arginyl-L-isoleucyl-L-allothreonyl-glycyl-[(3S)-3-hydroxy-L-asparaginyl]-L-seryl}-(3R)-3-amino-L-alanine 2-(trimethylsilyl)ethyl ester trifluoroacetate” here?
A: Its step yield is 69.1% of theory.

Q: For “[(3R)-N^2-(Benzyloxycarbonyl)-3-{(tert-butoxycarbonyl)amino}-L-phenylalanyl]-[(3R)-3-hydroxy-L-leucyl]-L-norvalyl-D-arginyl-L-isoleucyl-L-allothreonyl-glycyl-L-seryl-L-serine trifluoroacetate”, which step yield [1] is on record?
A: The step yield was 91% of theory.

Q: For “{(3R)-3-Amino-L-phenylalanyl}-[(3R)-3-hydroxy-L-leucyl]-L-leucyl-(N^6-benzyloxycarbonyl-D-lysyl)-L-isoleucyl-L-allothreonyl-glycyl-L-seryl-L-serine C^1.9-N^3.1-lactam”, which step yield (late stage modification step, of theory from 403A, trifluoroacetate) is on record?
A: Its step yield is 92% of theory.

Q: Which “final purity (method not given)” value [2] does the source give for “[(3R)-3-Hydroxy-L-leucyl]-L-norvalyl-D-arginyl-L-isoleucyl-L-allothreonyl-glycyl-L-alanyl-L-serine bistrifluoroacetate” here?
A: Its value is 41% pure.

Q: With “[3-Trimethylsilyl-D-alanyl]-[3-(3-pyridyl)-L-alanyl]-[(3R)-3-amino-L-phenylalanyl]-[(3R)-3-hydroxy-L-leucyl]-L-norleucyl-D-arginyl-L-isoleucyl-L-allothreonyl-glycyl-L-alanyl-L-serine C^1.11-N^3.3-lactam” as the substance, how does the step yield (late stage modification step, from compound 456A, trifluoroacetate) read?
A: Its step yield is 47% of theory.

Q: Which step yield [2] does the source give for “N^2-(Benzyloxycarbonyl)-N^3-{N^2.1-tert-butoxycarbonyl[(3R)-3-hydroxy-L-leucyl]-L-leucyl-D-arginyl-L-isoleucyl-L-allothreonyl-glycyl-[(3S)-3-hydroxy-L-asparaginyl]-L-seryl}-(3R)-3-amino-O-methyl-L-tyrosine trifluoroacetate” here?
A: The step yield was 99% of theory.

Q: For “[(3R)-3-Amino-L-phenylalanyl]-[(3R)-3-hydroxy-L-leucyl]-L-leucyl-D-arginyl-L-isoleucyl-L-allothreonyl-glycyl-L-allothreonyl-L-serinate C^1.9-N^3.1-lactam bishydrochloride”, which step yield [2] is on record?
A: Its step yield is 86% of theory.

Q: With “[(3R)-N^2-(tert-Butoxycarbonyl)-3-hydroxy-L-leucyl]-L-leucyl-D-arginyl-L-isoleucyl-L-allothreonyl-glycyl-L-alanyl-L-serine trifluoroacetate” as the substance, how does the step yield [2] read?
A: The step yield was 99% of theory.

Q: Which step yield [2] does the source give for “Benzyl [(3R)-3-hydroxy-L-leucyl]-L-leucyl-D-arginyl-L-isoleucyl-L-allothreonyl-glycyl-L-allothreonyl-L-serinate bistrifluoroacetate” here?
A: The step yield was 78% of theory.
